Measured values published in article doi:10.1101/2022.06.27.497849.
Where two headings read alike, the source gives them in different places. Results are given in words; binding and its absence hold for the method and conditions named. In cells and extracts the contact can be indirect. Here binding means that the protein was enriched with, or labelled near, the bait; the list need not be complete. For part of these data: A no says only that the protein was not detected with the bait.

Key:
Assay in all cases: affinity purification with mass spectrometry
[1] = target: GFP tagged TbMex67b (Trypanosoma brucei) (UniProt Q386S5)
[2] = target: GFP tagged TbMex67L (Trypanosoma brucei) (UniProt Q38C37)
[3] = target: GFP tagged TbMex67L (Trypanosoma brucei) (UniProt Q38C37); remark: listed apart in the source

TBC-domain containing GTPase-activating protein (TbGAP) (from UniProt Q38AJ6)
binding [1]: binds | binding [2]: no binding

B1: Nog1 (protein, UniProt Q9U6A9 1-655)
chain: MSTIYNFKTVTVVPSYKDFIDIVLSKTQRKTPTVVHKGYHISRIRQFYMRKVKFTQKTINEKLTHILTEFPRMDDIHPFYGDLMHVLYDRDHYKVALGQVGAVRHMVDNVGRDYVRLLKYGDSLYRCKQLKRAALGRMATACKKLTSALVYLEKVRQHMSRLPSIDPNARTLLITGFPNVGKSSFMNKVTRADVEVQPYAFTTKSLFVGHTDFKYASWQVIDTPGILDHSLEERNVIEMQAITALAHLRACILFFMDLSTQCGHSIAQQVSLFKSIGPLFTGKPVIVVFNKSDLCTFDDITAEEQSLVMTAIEECGAKWITTSTLTDAGVGDLKTLACETLLAHRSEQKEGSGRFQAIQNRLYCAVPQKRDNVERPAYVPPSVEEIRQRLASGEPVRERRKTERDYEWENGGPGQYQPNERKTWDLENPEWVDDIIPDIMDGHNIYDNVDPDIHERLMELEAEEDARLQELELEASKKRPQYELHDSTVEAVRFIRDKIKVIKMERAMKNPSLRRTRRQSVAIEKFNKRTGSQVDRSATPGCSSETTNSSAKRGRSLSAAQEAVMRDRSSSHMSTKTTRGISSHSATRDRSLSVNRGEGYRDVNEKLRAVKLSKVVARPRNLQAKKGEGDRAIPNLRPKHLFTGKVKSNGRRDRR
binding [3]: binds
